Results published in publication PMC4074974.
These are yes or no findings as the source states them, for the method shown. Binding seen in cells or lysates may run through a third protein. Here binding means that the protein was enriched with, or labelled near, the bait; the list need not be complete. Values belong to the molecule of their own block, whether it stands above or below them.

Amino acid sequences for entries named in this document (tags omitted). A change or cut given only in a name is not applied to a line headed by its entry.
UniProt Q9UQR0: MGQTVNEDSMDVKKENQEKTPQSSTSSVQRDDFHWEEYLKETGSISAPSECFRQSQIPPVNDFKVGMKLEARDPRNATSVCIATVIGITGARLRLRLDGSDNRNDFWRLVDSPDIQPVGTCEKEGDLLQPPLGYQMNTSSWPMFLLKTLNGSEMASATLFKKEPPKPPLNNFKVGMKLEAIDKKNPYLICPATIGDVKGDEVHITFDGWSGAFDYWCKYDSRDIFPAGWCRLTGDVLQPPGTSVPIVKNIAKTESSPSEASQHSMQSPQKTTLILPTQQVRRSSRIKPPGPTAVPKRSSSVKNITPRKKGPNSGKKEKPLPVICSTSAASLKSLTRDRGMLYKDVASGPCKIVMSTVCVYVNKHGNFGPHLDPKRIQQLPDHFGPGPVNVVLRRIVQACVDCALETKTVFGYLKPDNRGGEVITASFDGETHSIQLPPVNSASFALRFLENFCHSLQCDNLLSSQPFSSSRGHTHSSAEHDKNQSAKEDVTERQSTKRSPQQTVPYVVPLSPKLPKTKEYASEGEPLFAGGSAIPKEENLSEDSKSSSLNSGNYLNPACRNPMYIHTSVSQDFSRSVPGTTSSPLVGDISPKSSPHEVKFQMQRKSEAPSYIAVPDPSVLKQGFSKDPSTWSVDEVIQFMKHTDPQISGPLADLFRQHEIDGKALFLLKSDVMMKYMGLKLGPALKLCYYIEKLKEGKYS
UniProt P35226: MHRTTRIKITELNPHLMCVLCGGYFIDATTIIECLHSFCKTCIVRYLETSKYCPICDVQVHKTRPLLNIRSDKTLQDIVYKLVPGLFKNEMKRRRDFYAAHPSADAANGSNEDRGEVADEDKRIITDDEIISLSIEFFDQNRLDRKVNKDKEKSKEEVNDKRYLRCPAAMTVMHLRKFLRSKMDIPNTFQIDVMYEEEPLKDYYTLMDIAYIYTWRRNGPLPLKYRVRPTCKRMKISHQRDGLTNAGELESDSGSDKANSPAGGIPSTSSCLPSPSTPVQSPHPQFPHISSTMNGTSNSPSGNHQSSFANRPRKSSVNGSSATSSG
UniProt Q14781: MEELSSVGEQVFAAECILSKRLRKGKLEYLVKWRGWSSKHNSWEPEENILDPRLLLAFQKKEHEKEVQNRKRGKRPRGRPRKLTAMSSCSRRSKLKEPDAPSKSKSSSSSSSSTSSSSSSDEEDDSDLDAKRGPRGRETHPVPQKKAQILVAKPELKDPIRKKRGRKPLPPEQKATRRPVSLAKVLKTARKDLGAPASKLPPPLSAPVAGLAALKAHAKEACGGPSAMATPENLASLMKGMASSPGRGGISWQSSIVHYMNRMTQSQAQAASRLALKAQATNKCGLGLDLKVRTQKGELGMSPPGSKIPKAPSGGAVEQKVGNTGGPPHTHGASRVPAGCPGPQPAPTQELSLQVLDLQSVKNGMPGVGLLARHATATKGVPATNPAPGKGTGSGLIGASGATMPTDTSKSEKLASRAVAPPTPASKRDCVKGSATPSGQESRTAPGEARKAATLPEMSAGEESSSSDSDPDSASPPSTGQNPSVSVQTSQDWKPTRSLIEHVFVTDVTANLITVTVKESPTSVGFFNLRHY
UniProt Q9HC52: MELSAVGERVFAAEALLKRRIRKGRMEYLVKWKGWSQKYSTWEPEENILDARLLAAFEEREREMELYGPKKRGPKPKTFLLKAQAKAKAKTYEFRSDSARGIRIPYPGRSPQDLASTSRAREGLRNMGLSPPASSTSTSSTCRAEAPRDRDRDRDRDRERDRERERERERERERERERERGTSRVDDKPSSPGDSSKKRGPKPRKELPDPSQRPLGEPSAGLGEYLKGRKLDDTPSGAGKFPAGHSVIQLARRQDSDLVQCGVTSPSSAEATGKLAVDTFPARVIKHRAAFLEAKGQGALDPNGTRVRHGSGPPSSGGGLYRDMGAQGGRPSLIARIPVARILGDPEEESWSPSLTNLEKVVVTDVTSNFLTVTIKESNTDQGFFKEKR
UniProt Q06587: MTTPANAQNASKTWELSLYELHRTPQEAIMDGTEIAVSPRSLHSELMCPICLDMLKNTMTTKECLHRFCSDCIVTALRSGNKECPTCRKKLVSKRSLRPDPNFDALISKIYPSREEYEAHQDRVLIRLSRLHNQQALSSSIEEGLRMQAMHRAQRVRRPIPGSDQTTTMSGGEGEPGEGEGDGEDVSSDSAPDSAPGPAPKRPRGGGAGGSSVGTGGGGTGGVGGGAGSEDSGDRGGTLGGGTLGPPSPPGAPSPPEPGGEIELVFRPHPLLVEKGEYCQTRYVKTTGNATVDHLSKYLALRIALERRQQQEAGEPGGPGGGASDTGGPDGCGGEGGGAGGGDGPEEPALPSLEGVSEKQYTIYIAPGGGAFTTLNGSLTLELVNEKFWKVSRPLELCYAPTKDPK
UniProt Q99496: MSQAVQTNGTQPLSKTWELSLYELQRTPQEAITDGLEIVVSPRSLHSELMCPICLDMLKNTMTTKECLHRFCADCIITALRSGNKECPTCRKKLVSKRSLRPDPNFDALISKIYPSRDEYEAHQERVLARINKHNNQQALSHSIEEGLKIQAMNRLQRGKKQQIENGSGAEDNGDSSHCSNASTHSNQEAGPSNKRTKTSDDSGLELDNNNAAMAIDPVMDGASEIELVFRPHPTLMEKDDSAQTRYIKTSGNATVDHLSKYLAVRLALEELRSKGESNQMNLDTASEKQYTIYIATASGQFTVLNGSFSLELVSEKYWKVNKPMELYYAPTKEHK
UniProt Q96GD3: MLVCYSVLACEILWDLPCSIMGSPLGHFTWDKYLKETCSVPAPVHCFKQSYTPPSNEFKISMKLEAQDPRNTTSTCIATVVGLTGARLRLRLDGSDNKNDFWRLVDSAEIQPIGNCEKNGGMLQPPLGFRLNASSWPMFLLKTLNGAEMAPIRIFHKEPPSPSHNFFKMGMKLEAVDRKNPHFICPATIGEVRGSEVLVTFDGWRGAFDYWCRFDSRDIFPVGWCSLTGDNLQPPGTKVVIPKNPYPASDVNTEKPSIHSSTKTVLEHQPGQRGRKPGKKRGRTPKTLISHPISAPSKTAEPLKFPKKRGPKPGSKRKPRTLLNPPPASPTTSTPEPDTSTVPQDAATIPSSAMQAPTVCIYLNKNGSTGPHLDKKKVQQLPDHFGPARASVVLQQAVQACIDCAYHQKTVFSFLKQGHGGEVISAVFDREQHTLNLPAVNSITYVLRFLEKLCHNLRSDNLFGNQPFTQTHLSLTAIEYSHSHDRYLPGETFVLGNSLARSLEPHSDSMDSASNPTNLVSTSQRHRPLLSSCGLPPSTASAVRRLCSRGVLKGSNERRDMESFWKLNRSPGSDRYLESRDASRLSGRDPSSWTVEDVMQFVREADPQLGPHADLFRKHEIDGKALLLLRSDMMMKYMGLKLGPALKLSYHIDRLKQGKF
UniProt Q93009: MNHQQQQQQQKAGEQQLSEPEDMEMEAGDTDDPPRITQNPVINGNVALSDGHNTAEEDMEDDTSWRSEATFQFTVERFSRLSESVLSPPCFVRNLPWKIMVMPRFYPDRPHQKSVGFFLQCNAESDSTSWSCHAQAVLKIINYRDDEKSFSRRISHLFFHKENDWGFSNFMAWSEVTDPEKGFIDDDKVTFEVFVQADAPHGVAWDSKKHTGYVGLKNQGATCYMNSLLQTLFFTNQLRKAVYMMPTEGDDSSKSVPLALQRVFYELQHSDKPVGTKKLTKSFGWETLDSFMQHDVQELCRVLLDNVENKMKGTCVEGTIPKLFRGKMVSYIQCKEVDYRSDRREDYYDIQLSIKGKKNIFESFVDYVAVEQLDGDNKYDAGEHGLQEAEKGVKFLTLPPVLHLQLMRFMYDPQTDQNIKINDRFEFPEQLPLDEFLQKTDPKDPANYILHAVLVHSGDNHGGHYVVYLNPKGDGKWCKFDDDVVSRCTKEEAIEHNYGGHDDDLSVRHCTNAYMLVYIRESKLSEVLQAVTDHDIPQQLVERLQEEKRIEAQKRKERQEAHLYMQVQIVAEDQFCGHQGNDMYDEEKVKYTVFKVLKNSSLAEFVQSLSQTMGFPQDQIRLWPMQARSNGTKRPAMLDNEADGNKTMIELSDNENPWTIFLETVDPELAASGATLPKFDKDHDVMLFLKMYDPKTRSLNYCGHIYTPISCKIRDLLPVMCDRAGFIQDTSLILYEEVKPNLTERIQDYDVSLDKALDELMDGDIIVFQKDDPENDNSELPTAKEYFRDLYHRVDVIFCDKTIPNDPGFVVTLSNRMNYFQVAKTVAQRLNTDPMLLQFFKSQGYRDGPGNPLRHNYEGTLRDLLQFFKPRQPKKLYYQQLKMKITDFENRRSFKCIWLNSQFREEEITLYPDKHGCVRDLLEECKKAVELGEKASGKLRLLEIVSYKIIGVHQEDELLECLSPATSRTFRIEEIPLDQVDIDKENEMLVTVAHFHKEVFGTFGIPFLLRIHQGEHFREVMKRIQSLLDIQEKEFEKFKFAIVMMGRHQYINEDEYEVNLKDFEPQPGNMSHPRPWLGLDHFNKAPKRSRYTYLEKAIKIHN

Legend:
Assay in all cases: affinity purification with mass spectrometry; 30 mg solubilized nuclear pellet (chromatin fraction) of 293T-REx expressing FS-tagged SCML2 in 50 mM Tris pH 7.5, 200 mM NaCl on Strep-Tactin resin, 1 hr at 4°C; washes with 300 mM NaCl, 0.1% Igepal CA630; eluted in denaturing loading buffer
[1] = target: FS-SCML2A (epitope-tagged SCML2A, wild type) (human) (UniProt Q9UQR0)
[2] = target: FS-SCML2A ΔRBR (epitope-tagged SCML2A lacking the RNA-binding region) (human) (UniProt Q9UQR0)
[3] = target: FS-SCML2B (epitope-tagged SCML2B, wild type) (human)

binding [1]: binds
binding [2]: binds
Molecule: BMI1 (from UniProt P35226 1-326)

binding [1]: binds
binding [2]: binds
Molecule: CBX2 (from UniProt Q14781 1-532)

binding [1]: binds
binding [2]: binds
Molecule: CBX8 (from UniProt Q9HC52 1-389)

binding [1]: binds
binding [2]: binds
Molecule: RING1A (from UniProt Q06587 1-406)

binding [1]: binds
binding [2]: binds
Molecule: RING1B (from UniProt Q99496 1-336)

binding [1]: binds
Molecule: SCMH1 (from UniProt Q96GD3 1-660)

binding [1]: binds
Molecule: USP7 (from UniProt Q93009 1-1102)

binding [1]: binds
B1: L3MBTL3 (protein, UniProt Q96JM7 1-780)
chain: MTESASSTSGQEFDVFSVMDWKDGVGTLPGSDLKFRVNEFGALEVITDENEMENVKKATATTTWMVPTAQEAPTSPPSSRPVFPPAYWTSPPGCPTVFSEKTGMPFRLKDPVKVEGLQFCENCCQYGNVDECLSGGNYCSQNCARHIKDKDQKEERDVEEDNEEEDPKCSRKKKPKLSLKADTKEDGEERDDEMENKQDVRILRGSQRARRKRRGDSAVLKQGLPPKGKKAWCWASYLEEEKAVAVPAKLFKEHQSFPYNKNGFKVGMKLEGVDPEHQSVYCVLTVAEVCGYRIKLHFDGYSDCYDFWVNADALDIHPVGWCEKTGHKLHPPKGYKEEEFNWQTYLKTCKAQAAPKSLFENQNITVIPSGFRVGMKLEAVDKKNPSFICVATVTDMVDNRFLVHFDNWDESYDYWCEASSPHIHPVGWCKEHRRTLITPPGYPNVKHFSWDKYLEETNSLPAPARAFKVKPPHGFQKKMKLEVVDKRNPMFIRVATVADTDDHRVKVHFDGWNNCYDYWIDADSPDIHPVGWCSKTGHPLQPPLSPLELMEASEHGGCSTPGCKGIGHFKRARHLGPHSAANCPYSEINLNKDRIFPDRLSGEMPPASPSFPRNKRTDANESSSSPEIRDQHADDVKEDFEERTESEMRTSHEARGAREEPTVQQAQRRSAVFLSFKSPIPCLPLRWEQQSKLLPTVAGIPASKVSKWSTDEVSEFIQSLPGCEEHGKVFKDEQIDGEAFLLMTQTDIVKIMSIKLGPALKIFNSILMFKAAEKNSHNEL

binding [1]: binds
binding [2]: binds
binding [3]: binds weakly
B2: PHC3 (protein, UniProt Q8NDX5 1-983)
chain: MDTEPNPGTSSVSTTTSSTTTTTITTSSSRMQQPQISVYSGSDRHAVQVIQQALHRPPSSAAQYLQQMYAAQQQHLMLHTAALQQQHLSSSQLQSLAAVQASLSSGRPSTSPTGSVTQQSSMSQTSINLSTSPTPAQLISRSQASSSTSGSITQQTMLLGSTSPTLTASQAQMYLRAQMLIFTPATTVAAVQSDIPVVSSSSSSSCQSAATQVQNLTLRSQKLGVLSSSQNGPPKSTSQTQSLTICHNKTTVTSSKISQRDPSPESNKKGESPSLESRSTAVTRTSSIHQLIAPASYSPIQPHSLIKHQQIPLHSPPSKVSHHQLILQQQQQQIQPITLQNSTQDPPPSQHCIPLQNHGLPPAPSNAQSQHCSPIQSHPSPLTVSPNQSQSAQQSVVVSPPPPHSPSQSPTIIIHPQALIQPHPLVSSALQPGPNLQQSTANQVQATAQLNLPSHLPLPASPVVHIGPVQQSALVSPGQQIVSPSHQQYSSLQSSPIPIASPPQMSTSPPAQIPPLPLQSMQSLQVQPEILSQGQVLVQNALVSEEELPAAEALVQLPFQTLPPPQTVAVNLQVQPPAPVDPPVVYQVEDVCEEEMPEESDECVRMDRTPPPPTLSPAAITVGRGEDLTSEHPLLEQVELPAVASVSASVIKSPSDPSHVSVPPPPLLLPAATTRSNSTSMHSSIPSIENKPPQAIVKPQILTHVIEGFVIQEGLEPFPVSRSSLLIEQPVKKRPLLDNQVINSVCVQPELQNNTKHADNSSDTEMEDMIAEETLEEMDSELLKCEFCGKMGYANEFLRSKRFCTMSCAKRYNVSCSKKFALSRWNRKPDNQSLGHRGRRPSGPDGAAREHILRQLPITYPSAEEDLASHEDSVPSAMTTRLRRQSERERERELRDVRIRKMPENSDLLPVAQTEPSIWTVDDVWAFIHSLPGCQDIADEFRAQEIDGQALLLLKEDHLMSAMNIKLGPALKICARINSLKES

binding [1]: binds
binding [2]: binds
binding [3]: binds weakly
B3: PHC2 (protein, UniProt Q8IXK0 1-858)
chain: MENELPVPHTSSSACATSSTSGASSSSGCNNSSSGGSGRPTGPQISVYSGIPDRQTVQVIQQALHRQPSTAAQYLQQMYAAQQQHLMLQTAALQQQHLSSAQLQSLAAVQQASLVSNRQGSTSGSNVSAQAPAQSSSINLAASPAAAQLLNRAQSVNSAAASGIAQQAVLLGNTSSPALTASQAQMYLRAQMLIFTPTATVATVQPELGTGSPARPPTPAQVQNLTLRTQQTPAAAASGPTPTQPVLPSLALKPTPGGSQPLPTPAQSRNTAQASPAGAKPGIADSVMEPHKKGDGNSSVPGSMEGRAGLSRTVPAVAAHPLIAPAYAQLQPHQLLPQPSSKHLQPQFVIQQQPQPQQQQPPPQQSRPVLQAEPHPQLASVSPSVALQPSSEAHAMPLGPVTPALPLQCPTANLHKPGGSQQCHPPTPDTGPQNGHPEGVPHTPQRRFQHTSAVILQLQPASPPQQCVPDDWKEVAPGEKSVPETRSGPSPHQQAIVTAMPGGLPVPTSPNIQPSPAHETGQGIVHALTDLSSPGMTSGNGNSASSIAGTAPQNGENKPPQAIVKPQILTHVIEGFVIQEGAEPFPVGRSSLLVGNLKKKYAQGFLPEKLPQQDHTTTTDSEMEEPYLQESKEEGAPLKLKCELCGRVDFAYKFKRSKRFCSMACAKRYNVGCTKRVGLFHSDRSKLQKAGAATHNRRRASKASLPPLTKDTKKQPTGTVPLSVTAALQLTHSQEDSSRCSDNSSYEEPLSPISASSSTSRRRQGQRDLELPDMHMRDLVGMGHHFLPSEPTKWNVEDVYEFIRSLPGCQEIAEEFRAQEIDGQALLLLKEDHLMSAMNIKLGPALKIYARISMLKDS
